Results from article PMC9999015.
These are yes or no findings as the source states them, for the method shown. In cells and extracts the contact can be indirect. Some entries that bind do so weakly or less than the wild type.

By UniProt entry, the sequences of proteins in these tests, tags left out.
UniProt Q13485: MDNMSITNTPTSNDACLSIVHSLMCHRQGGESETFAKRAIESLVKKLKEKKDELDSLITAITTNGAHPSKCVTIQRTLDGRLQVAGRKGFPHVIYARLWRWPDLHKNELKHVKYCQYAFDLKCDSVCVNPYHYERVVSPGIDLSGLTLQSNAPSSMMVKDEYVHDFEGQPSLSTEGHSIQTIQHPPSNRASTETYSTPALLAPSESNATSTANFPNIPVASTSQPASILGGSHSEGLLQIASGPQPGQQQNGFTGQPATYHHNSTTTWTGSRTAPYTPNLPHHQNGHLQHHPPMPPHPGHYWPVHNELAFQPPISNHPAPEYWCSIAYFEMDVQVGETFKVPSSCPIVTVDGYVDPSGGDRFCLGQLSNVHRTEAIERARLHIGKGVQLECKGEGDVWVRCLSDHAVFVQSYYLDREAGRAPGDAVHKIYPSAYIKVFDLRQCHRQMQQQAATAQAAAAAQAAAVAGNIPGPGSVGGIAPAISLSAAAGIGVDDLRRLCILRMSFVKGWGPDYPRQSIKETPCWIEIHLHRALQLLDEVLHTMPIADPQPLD

Target: Smad4 (human (endogenous in PANC-1)) (UniProt Q13485)
Assay: co-IP; endogenous proteins in PANC-1 lysate; pre-cleared lysate with anti-Smad4 antibody 1 h at 4°C, protein A magnetic beads, five washes, immunoblot for Prdm16; lysis buffer 25 mM Tris-HCl pH 7.2, 150 mM NaCl, 5 mM MgCl2, 5% glycerol, 1% NP40; cells with or without TGF-β1 for 48 h (interaction inhibited by TGF-β1); PANC-1 with SMAD4 gRNA as control

binding: binds
Substance: Prdm16 (PR domain containing 16) (from UniProt Q9HAZ2-1 1-1276)
